Experimental findings from the supplement of paper PMC10849652 are described below.

Amino acid sequences for entries named in this document (tags omitted). A change or cut given only in a name is not applied to a line headed by its entry.
UniProt Q9HBU6: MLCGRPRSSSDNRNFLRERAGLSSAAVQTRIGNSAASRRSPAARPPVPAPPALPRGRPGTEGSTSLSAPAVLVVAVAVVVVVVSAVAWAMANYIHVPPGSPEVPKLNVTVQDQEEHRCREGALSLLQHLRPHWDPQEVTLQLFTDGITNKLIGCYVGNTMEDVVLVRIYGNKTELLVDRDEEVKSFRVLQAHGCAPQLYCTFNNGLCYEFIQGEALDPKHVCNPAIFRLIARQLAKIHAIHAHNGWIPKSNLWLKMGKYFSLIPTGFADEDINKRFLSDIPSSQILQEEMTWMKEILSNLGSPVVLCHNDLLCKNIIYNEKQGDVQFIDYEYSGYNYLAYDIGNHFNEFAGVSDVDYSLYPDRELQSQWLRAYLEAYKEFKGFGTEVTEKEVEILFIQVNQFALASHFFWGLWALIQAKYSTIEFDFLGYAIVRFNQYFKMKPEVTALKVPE
UniProt Q9Y282: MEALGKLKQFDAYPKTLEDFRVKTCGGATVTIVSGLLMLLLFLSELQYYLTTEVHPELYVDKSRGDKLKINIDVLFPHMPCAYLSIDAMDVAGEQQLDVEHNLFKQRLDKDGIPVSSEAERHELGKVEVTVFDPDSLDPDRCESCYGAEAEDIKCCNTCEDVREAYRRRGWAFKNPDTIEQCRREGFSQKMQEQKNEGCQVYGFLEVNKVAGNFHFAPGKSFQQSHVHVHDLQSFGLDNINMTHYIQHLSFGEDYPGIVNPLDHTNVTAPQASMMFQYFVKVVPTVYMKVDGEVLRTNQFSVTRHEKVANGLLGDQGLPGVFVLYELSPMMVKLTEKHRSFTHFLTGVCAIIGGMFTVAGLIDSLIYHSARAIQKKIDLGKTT
UniProt Q8IYI6: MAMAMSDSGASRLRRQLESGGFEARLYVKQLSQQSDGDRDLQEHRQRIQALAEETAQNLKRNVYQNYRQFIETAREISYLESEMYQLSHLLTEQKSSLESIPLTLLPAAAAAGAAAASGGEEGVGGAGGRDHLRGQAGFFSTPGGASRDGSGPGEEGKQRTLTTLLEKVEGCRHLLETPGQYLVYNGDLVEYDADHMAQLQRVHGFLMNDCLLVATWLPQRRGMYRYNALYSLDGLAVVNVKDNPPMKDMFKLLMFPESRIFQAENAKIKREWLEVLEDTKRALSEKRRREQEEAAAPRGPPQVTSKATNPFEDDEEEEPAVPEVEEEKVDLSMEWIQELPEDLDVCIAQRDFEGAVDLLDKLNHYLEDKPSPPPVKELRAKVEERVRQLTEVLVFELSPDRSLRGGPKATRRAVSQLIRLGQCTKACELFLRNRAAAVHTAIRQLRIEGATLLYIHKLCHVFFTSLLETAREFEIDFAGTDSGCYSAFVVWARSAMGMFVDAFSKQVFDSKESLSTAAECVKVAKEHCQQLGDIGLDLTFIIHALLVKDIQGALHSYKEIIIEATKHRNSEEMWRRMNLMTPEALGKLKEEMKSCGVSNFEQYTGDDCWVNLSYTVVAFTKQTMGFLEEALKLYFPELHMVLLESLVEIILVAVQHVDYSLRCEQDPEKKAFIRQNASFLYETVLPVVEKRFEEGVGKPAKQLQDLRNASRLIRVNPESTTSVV
UniProt O00471: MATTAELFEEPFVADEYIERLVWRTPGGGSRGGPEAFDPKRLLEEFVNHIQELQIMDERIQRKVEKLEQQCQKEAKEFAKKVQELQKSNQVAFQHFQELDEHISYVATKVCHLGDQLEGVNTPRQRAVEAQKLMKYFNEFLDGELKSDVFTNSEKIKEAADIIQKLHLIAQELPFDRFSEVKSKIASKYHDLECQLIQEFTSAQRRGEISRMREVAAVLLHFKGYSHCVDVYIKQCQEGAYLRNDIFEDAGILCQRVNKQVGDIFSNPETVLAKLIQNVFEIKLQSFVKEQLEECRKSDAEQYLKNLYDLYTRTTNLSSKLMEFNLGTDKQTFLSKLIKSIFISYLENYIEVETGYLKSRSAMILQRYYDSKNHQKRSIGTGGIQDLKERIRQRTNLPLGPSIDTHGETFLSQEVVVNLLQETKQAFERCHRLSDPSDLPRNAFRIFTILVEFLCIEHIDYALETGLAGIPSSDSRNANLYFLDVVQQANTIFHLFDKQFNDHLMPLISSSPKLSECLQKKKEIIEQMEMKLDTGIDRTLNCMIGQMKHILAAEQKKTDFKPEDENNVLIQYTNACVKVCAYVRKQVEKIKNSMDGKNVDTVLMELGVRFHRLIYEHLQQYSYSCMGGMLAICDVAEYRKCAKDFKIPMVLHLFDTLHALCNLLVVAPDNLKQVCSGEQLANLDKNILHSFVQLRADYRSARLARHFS
UniProt Q96PL5: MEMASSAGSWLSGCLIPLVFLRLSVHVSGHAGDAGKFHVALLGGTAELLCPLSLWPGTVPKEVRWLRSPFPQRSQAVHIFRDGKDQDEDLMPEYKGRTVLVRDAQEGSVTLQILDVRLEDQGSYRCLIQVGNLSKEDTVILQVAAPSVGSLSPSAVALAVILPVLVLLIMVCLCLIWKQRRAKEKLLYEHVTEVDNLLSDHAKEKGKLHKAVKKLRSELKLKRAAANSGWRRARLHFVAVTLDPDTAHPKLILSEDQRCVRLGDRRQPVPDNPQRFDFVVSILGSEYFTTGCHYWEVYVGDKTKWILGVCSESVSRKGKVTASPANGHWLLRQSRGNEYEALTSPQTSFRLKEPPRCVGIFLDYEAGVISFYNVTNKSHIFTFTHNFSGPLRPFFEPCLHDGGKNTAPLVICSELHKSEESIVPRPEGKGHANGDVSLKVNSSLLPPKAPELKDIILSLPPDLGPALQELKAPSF
UniProt Q96GK7: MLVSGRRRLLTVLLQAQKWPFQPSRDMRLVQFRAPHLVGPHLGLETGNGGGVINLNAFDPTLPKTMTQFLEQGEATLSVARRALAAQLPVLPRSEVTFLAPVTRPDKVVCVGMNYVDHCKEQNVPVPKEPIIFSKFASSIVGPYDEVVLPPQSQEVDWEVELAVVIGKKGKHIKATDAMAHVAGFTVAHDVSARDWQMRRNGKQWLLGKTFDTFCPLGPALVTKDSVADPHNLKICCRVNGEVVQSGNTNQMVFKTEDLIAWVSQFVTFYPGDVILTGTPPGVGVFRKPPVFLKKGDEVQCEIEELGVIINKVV
UniProt Q9Y624, whole entry, looked up, stated change not applied: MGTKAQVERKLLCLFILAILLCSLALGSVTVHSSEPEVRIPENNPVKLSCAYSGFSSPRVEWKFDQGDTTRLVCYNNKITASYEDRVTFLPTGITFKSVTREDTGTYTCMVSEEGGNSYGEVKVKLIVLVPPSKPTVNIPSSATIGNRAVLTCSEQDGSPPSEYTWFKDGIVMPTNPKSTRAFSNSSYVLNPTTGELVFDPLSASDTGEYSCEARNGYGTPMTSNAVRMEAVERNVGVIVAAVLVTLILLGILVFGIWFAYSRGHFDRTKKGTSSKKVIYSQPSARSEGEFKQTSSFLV
UniProt Q0VG06: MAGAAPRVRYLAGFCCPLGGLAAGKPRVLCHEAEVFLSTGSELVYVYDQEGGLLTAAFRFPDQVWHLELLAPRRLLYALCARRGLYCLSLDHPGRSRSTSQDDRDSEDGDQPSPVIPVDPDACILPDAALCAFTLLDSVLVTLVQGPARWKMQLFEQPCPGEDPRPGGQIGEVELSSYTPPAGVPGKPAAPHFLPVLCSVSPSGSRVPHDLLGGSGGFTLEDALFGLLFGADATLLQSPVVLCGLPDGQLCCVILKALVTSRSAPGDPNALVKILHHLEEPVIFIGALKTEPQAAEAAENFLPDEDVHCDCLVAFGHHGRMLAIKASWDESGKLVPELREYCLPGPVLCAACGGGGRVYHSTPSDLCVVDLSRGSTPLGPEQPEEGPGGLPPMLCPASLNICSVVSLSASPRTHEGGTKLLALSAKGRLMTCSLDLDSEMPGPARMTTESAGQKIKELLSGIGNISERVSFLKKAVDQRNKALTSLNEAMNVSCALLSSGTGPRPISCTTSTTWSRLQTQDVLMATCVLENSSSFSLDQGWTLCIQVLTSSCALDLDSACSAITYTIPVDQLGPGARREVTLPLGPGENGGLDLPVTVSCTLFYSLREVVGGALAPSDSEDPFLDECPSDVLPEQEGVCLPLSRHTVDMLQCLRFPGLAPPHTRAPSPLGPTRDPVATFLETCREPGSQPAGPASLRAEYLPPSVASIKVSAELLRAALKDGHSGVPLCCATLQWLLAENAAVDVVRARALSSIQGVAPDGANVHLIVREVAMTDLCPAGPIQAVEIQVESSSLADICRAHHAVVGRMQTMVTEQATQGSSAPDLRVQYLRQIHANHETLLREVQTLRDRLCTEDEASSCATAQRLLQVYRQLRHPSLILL
UniProt Q03468, whole entry, looked up: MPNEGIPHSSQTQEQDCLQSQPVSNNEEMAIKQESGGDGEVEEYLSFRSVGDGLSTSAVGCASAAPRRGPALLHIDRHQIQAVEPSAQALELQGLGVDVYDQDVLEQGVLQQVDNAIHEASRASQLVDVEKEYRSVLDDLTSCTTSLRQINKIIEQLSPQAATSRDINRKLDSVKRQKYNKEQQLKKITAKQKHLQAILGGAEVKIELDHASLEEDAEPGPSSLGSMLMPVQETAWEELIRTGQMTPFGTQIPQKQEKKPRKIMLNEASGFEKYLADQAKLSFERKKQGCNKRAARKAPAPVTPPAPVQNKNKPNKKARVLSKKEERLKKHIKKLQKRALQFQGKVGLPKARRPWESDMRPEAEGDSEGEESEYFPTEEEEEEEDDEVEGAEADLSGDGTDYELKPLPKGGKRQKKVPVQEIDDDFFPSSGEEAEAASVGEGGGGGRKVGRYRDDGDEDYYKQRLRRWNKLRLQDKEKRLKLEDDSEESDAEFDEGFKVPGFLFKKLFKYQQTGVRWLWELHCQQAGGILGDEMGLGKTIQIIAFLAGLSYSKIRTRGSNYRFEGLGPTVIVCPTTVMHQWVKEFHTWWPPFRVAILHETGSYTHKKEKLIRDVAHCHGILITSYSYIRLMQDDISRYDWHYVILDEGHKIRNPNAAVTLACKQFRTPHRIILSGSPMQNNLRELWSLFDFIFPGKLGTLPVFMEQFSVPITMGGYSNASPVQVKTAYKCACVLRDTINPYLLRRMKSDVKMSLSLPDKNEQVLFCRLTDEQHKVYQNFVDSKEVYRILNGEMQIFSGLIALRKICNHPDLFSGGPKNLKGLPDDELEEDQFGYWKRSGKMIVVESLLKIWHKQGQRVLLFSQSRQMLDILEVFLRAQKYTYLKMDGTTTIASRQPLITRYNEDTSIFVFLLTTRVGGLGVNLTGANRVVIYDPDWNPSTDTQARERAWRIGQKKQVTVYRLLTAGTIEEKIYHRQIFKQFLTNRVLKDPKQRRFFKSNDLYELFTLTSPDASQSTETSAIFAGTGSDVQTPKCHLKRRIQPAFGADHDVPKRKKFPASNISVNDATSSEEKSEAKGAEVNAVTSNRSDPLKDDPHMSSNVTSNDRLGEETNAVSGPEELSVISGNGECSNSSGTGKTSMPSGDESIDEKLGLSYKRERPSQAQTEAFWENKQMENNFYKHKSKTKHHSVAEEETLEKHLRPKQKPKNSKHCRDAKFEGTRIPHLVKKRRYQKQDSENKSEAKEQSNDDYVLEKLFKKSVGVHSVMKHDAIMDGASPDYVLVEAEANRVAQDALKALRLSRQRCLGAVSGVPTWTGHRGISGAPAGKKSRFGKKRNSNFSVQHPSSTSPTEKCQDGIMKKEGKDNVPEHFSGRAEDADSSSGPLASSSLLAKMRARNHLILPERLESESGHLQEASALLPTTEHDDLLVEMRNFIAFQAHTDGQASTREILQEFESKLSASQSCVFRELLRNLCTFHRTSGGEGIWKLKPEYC
UniProt Q9NPD3, whole entry, looked up: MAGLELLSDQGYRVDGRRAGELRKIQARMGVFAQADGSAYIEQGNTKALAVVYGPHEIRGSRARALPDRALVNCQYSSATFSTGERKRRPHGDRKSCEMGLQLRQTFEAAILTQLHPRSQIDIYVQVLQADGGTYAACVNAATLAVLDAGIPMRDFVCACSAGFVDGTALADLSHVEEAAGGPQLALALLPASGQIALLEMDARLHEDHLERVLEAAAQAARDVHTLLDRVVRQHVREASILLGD
UniProt P11474: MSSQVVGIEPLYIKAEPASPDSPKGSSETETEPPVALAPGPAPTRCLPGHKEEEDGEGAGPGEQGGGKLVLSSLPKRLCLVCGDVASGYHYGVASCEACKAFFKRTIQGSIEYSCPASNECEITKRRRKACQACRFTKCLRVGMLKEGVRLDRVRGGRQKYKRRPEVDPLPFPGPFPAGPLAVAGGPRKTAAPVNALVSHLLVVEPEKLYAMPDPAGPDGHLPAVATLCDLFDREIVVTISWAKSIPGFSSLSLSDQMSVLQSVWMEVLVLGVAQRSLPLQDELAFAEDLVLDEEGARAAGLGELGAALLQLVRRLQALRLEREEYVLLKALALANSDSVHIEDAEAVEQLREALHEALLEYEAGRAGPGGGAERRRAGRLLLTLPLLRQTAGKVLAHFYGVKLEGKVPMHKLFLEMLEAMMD
UniProt Q9Y3B2, whole entry, looked up: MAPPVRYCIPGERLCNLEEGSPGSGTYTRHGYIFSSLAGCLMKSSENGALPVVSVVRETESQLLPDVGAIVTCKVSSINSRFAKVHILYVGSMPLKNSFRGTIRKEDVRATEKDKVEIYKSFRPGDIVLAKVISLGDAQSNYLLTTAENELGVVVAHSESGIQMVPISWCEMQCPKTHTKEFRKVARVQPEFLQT

This is one part of the list.

Compound in the first test: C1=CC2=C(C=CC(=C2)/C=C\3/C(=O)NC(=NCC4=CC=CS4)S3)N=C1
In words: log2 fold change, soluble protein after heating vs DMSO (PISA); higher = thermal stabilisation; K562 cells, 10 uM, 30 min; active = over 0.2 and 3.5 SD of the protein, either way, in both replicates (recomputed). In outline:
(§1)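 K562 cells at 2×10^6 cells/mL were exposed to 10 μM compound for 30 min, then aliquots were heated for 3 min across 48°C-58°C, pooled, and extracted in PBS containing 0.5% NP-40 at 4°C. The supernatant after 21,000xg for 90 min was taken as soluble protein and measured by TMTpro 16plex LC-MS/MS with channel sums equalised. Thermal stability is reported relative to control samples, with values from duplicates. Fold changes are given on a log2 scale.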
As for ETNK1 (UniProt Q9HBU6), the log2 fold change is inactive: -0.126.

In the case of ERGIC3 isoform 3 (UniProt Q9Y282), the log2 fold change was inactive: -0.057.

As for EXOC8 (UniProt Q8IYI6), the log2 fold change is inactive: 0.05.

EXOC5 (UniProt O00471): the log2 fold change was inactive: 0.01.

For ERMAP (UniProt Q96PL5), the log2 fold change was inactive: 0.048.

Turning to FAM120A isoform 6 (UniProt Q9NZB2), the log2 fold change was inactive: -0.065.

As to ETF1 (UniProt P62495), the log2 fold change is inactive: 0.042.

For the target ESPL1 (UniProt Q14674), the log2 fold change is inactive: -0.225.

As to ERP44 (UniProt Q9BS26), the log2 fold change is inactive: -0.011.

Consider FAHD2A (UniProt Q96GK7), for which the log2 fold change is inactive: 0.01.

ERLEC1 (UniProt Q96DZ1): the log2 fold change was inactive: 0.065.

As for FADS1, A0A0A0MR51, the log2 fold change is inactive: 0.09.

Turning to F11R (UniProt Q9Y624), the log2 fold change was inactive: 0.029.

Take FAAP100 (UniProt Q0VG06): the log2 fold change was inactive: 0.052.

With ERCC6 (UniProt Q03468), the log2 fold change is inactive: -0.096.

Turning to EXOSC4 (UniProt Q9NPD3), the log2 fold change was inactive: 0.031.

Consider ESRRA (UniProt P11474), for which the log2 fold change was inactive: 0.043.

Compound in a further test: C1=CC2=NC=CN=C2C=C1/C=C/3\C(=O)NC(=O)S3
Described as above. The gist of the method:
as §1
For the target EPB41L2 (UniProt O43491), the log2 fold change was inactive: -0.007.

Take EPHX1 (UniProt P07099): the log2 fold change is inactive: 0.031.

As for F5 (UniProt P12259), the log2 fold change is inactive: -0.054.

Turning to EXOSC9 isoform 2 (UniProt Q06265), the log2 fold change is inactive: 0.059.

As for EVC2 (UniProt Q86UK5), the log2 fold change was inactive: -0.019.

As for FAM162A (UniProt Q96A26), the log2 fold change was inactive: 0.007.

FAH isoform 2 (UniProt P16930): the log2 fold change is inactive: 0.086.

Consider ETFA (UniProt P13804), for which the log2 fold change was inactive: 0.005.

As to FAM133B (UniProt Q5BKY9), the log2 fold change was inactive: -0.013.

Turning to FAHD2B (UniProt Q6P2I3), the log2 fold change is inactive: -0.009.

FAF1 (UniProt Q9UNN5): the log2 fold change is inactive: 0.017.

As for FAM122A (UniProt Q96E09), the log2 fold change is inactive: 0.051.

In the case of EXOSC1 (UniProt Q9Y3B2), the log2 fold change was inactive: -0.023.

Take EXOC4 (UniProt Q96A65): the log2 fold change was inactive: 0.033.

ERLIN2 (UniProt O94905): the log2 fold change was inactive: 0.027.

ETNK1 (UniProt Q9HBU6): the log2 fold change was inactive: 0.035.

As to ERGIC3 isoform 3 (UniProt Q9Y282), the log2 fold change was inactive: 0.015.

On to EXOC8 (UniProt Q8IYI6), for which the log2 fold change is inactive: 0.017.

For the target EXOC5 (UniProt O00471), the log2 fold change is inactive: 0.

Consider ERMAP (UniProt Q96PL5), for which the log2 fold change was inactive: 0.016.

With FAM120A isoform 6 (UniProt Q9NZB2), the log2 fold change is inactive: 0.011.

With ETF1 (UniProt P62495), the log2 fold change is inactive: 0.035.

In the case of ESPL1 (UniProt Q14674), the log2 fold change was inactive: 0.03.

Consider ERP44 (UniProt Q9BS26), for which the log2 fold change was inactive: 0.01.

Consider FAHD2A (UniProt Q96GK7), for which the log2 fold change is inactive: -0.002.

With ERLEC1 (UniProt Q96DZ1), the log2 fold change is inactive: 0.026.

In the case of FADS1, A0A0A0MR51, the log2 fold change is inactive: 0.05.

For F11R (UniProt Q9Y624), the log2 fold change is inactive: 0.012.

Regarding FAAP100 (UniProt Q0VG06), the log2 fold change was inactive: 0.17.

As to ERCC6 (UniProt Q03468), the log2 fold change is inactive: -0.224.

EXOSC4 (UniProt Q9NPD3): the log2 fold change was inactive: 0.016.

With ESRRA (UniProt P11474), the log2 fold change was inactive: -0.024.

Compound in the next test: C1=CC=C(C=C1)C2=NC(=C(N2)C3=CC=NC=C3)C4=CC(=C(C=C4)Cl)O
Described as above. In outline:
as §1
As for EPB41L2 (UniProt O43491), the log2 fold change is inactive: 0.015.

As for EPHX1 (UniProt P07099), the log2 fold change is inactive: 0.007.

For F5 (UniProt P12259), the log2 fold change was inactive: -0.018.

As for EXOSC9 isoform 2 (UniProt Q06265), the log2 fold change was inactive: -0.075.

EVC2 (UniProt Q86UK5): the log2 fold change was inactive: -0.002.

FAM162A (UniProt Q96A26): the log2 fold change was inactive: -0.018.

FAH isoform 2 (UniProt P16930): the log2 fold change is inactive: -0.128.

As to ETFA (UniProt P13804), the log2 fold change was inactive: 0.035.

FAM133B (UniProt Q5BKY9): the log2 fold change was inactive: -0.036.

In the case of FAHD2B (UniProt Q6P2I3), the log2 fold change was inactive: -0.005.

For FAF1 (UniProt Q9UNN5), the log2 fold change is inactive: 0.003.

Regarding FAM122A (UniProt Q96E09), the log2 fold change is inactive: -0.019.

Consider EXOSC1 (UniProt Q9Y3B2), for which the log2 fold change is inactive: -0.049.

On to EXOC4 (UniProt Q96A65), for which the log2 fold change was inactive: -0.036.

With ERLIN2 (UniProt O94905), the log2 fold change was inactive: 0.021.

For the target ETNK1 (UniProt Q9HBU6), the log2 fold change was inactive: 0.037.

ERGIC3 isoform 3 (UniProt Q9Y282): the log2 fold change is inactive: 0.012.

As for EXOC8 (UniProt Q8IYI6), the log2 fold change is inactive: -0.012.

As for EXOC5 (UniProt O00471), the log2 fold change is inactive: -0.006.

As for ERMAP (UniProt Q96PL5), the log2 fold change is inactive: -0.04.

Take FAM120A isoform 6 (UniProt Q9NZB2): the log2 fold change is inactive: -0.068.

For the target ETF1 (UniProt P62495), the log2 fold change was inactive: 0.006.

For the target ESPL1 (UniProt Q14674), the log2 fold change is inactive: -0.328.

ERP44 (UniProt Q9BS26): the log2 fold change is inactive: -0.012.

In the case of FAHD2A (UniProt Q96GK7), the log2 fold change is inactive: 0.004.

ERLEC1 (UniProt Q96DZ1): the log2 fold change was inactive: -0.031.

Consider FADS1, A0A0A0MR51, for which the log2 fold change was active: 0.231.

In the case of F11R (UniProt Q9Y624), the log2 fold change is inactive: -0.017.

FAAP100 (UniProt Q0VG06): the log2 fold change is inactive: -0.024.

On to ERCC6 (UniProt Q03468), for which the log2 fold change was inactive: -0.052.

As for EXOSC4 (UniProt Q9NPD3), the log2 fold change was inactive: 0.069.

For the target ESRRA (UniProt P11474), the log2 fold change was inactive: -0.065.
